Test results as given in patent publication US20210309747A1.
These are yes or no findings as the source states them, for the method shown. Some binding calls cover weakened binding; strength is not graded here. Blank lines part the entries; values can stand above or below the binder they belong to.

The chains behind the UniProt entries cited, without tags or fusion partners. Where a name states a change or a piece, a line headed by the entry shows the natural chain unless it says otherwise.
UniProt Q9NZQ7: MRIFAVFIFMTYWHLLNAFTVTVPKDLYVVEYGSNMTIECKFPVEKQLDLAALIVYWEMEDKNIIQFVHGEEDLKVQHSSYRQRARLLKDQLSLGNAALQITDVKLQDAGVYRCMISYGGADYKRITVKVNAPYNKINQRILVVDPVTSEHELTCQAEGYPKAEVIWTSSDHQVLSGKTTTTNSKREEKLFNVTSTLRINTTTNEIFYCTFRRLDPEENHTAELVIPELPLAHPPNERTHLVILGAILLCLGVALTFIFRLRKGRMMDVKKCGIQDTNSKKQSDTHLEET

Tests used:
[1] = target: recombinant human PD-L1 (Sino Biological, Cat#: 10084-H08H) (human) (UniProt Q9NZQ7); assay: ELISA, human PD-L1 coated at 1 µg/ml, full-length IgG
cyno PDL1-His (cyno) [2] = target: cyno PDL1-His (cyno) (UniProt G7PSE7); assay: ELISA (FIG. 7)
cyno PDL1-His (cyno) [3] = target: cyno PDL1-His (cyno) (UniProt G7PSE7); assay: ELISA (Example 7)
cyno PDL1-His (cyno) [4] = target: cyno PDL1-His (cyno) (UniProt G7PSE7); assay: ELISA, PDL1-His coated at 0.5 µg/ml

binding [1]: binds
B1: B15 (antibody, V domains shown)
VH: EVQLLESGGGLVKPGGSLRLSCSASGFTFSVYYMAWIRQAPGEGLEWISYTSNGDGDITYYADSVKDRFTISRDNAKNSLLLQMNSLRDEDTAVYYCVRAARSGYYNDYWGQGTLVTVSA
VL: DIQLTQSPSSLSASVGDRVTMTCRASQFISKYVNWYQQKPGKAPKVLIYGASILETGVPSRFSGSGFGTDFTFTISSLQPEDFATYYCQQTHSTPRGVFGQGTRVEVK

binding (cyno PDL1-His (cyno) [2]): binds
binding (cyno PDL1-His (cyno) [3]): binds
binding (cyno PDL1-His (cyno) [4]): binds
B2: B12-01 (antibody, V domains shown)
VH: QVQLLESGGGLVQPGGSLRLSCAASGFTFSSYWMSWVRQAPGKGLEWVANIKQDGSEKYYVDSVKGRFTISRDNAKNSLYLQMNSLRAEDTAVYYCARVALWDDAFDIWGQGTMVTVSS
VL: DIQMTQSPSTLSASVGDRVIITCRASRGISSWLAWYQQKPGKAPNLLISKASSLESGVPSRFSGSGSGTDFTLTISSLQPEDFATYYCQQSSSIPLTFGGGTKVEIK
